Source: patent publication US20100041620A1, “METHODS FOR IMPROVING FRONTAL BRAIN BIOENERGETIC METABOLISM” (priority 2008, published 2010)
At least one compound was matched to its structure with a doubt left.

Key:
[1] = test system: parieto-occipital cortex (POC); assay: 31P magnetic resonance spectroscopic imaging (3D-CSI, 4 Tesla) of phosphorus metabolites, parieto-occipital cortex comparison region; format: in vivo, human; settings: six weeks, at either dose (500 or 2000 mg/day)
Excerpt: ^31P data were collected using a three-dimensional chemical shift imaging (3D-CSI) technique at 4 Tesla in healthy middle-aged individuals. The use of 3D-CSI at high field has several advantages over previous methods: (1) increased spectral dispersion, which allows for increased precision of metabolite quantification; (2) post-processing grid shifting that allows for 3D placement of voxels of interest; and (3) the ability to co-register voxel placement between baseline and post-treatment follow-up. High-energy metabolite peaks quantified in the present study include phosphocreatine (PCr), β-nucleoside triphosphate (NTP, ATP in brain), and inorganic phosphate (Pi). Phospholipid membrane metabolite peaks quantified include anabolites, phosphomonoesters (PME), including phosphoethanolamine (PE) and phosphocholine (PC), and catabolites, phosphodiesters (PDE), including glycerophosphoethanolamine (GPE) and glycerolphosphocholine (GPC). […] A comparison region placed in the parieto-occipital cortex (POC) was also evaluated. […]
Phosphorus MRSI was performed using the phosphorus channel of the dual tuned proton-phosphorus TEM whole-head coil from Bioengineering Inc. (Minneapolis, Minn.) operating at 68.9 MHz. Phosphorus MRSI data were recorded using a three-dimensional chemical shift imaging (3D-CSI) sequence (Garraux, Neuroimage 10:149-162, 1999). […]

[2] = test system: axial brain slice through the frontal and occipital cortices; settings: after 6 weeks of citicoline treatment, elderly subjects (69.4±5.6 years), 1.5 Tesla; cited from earlier work

C[N+](C)(C)CCOP(=O)(O)OP(=O)([O-])OC[C@H]1O[C@@H](n2ccc(N)nc2=O)[C@H](O)[C@@H]1O [citicoline, cytidine 5′-diphosphocholine]
changes in Pi from baseline [1]: No changes | changes in the PCr/Pi ratio from baseline [1]: No changes | phosphodiesters (PDE, phospholipid membrane catabolites) [2]: significant increase
